Results from patent publication US20160185832A1.
Results are given in words; binding and its absence hold for the method and conditions named. Some entries that bind do so weakly or less than the wild type.

Protein sequences, listed by entry. Tags and fused reporters are not part of them. Lines headed by an entry give the natural chain unless they say otherwise; changes in a name come on top.
UniProt P81947: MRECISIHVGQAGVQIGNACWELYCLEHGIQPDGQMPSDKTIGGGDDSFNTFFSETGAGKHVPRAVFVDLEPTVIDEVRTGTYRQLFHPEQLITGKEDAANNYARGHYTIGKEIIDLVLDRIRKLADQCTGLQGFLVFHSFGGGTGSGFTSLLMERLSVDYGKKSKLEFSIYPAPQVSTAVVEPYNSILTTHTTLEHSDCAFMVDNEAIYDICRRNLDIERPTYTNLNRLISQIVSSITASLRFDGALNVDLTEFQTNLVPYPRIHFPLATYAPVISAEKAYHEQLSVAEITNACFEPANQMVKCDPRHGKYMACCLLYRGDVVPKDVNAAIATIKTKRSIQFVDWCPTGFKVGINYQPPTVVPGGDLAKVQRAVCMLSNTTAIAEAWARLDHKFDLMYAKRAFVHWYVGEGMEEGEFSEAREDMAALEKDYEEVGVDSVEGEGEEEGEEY
UniProt Q6B856: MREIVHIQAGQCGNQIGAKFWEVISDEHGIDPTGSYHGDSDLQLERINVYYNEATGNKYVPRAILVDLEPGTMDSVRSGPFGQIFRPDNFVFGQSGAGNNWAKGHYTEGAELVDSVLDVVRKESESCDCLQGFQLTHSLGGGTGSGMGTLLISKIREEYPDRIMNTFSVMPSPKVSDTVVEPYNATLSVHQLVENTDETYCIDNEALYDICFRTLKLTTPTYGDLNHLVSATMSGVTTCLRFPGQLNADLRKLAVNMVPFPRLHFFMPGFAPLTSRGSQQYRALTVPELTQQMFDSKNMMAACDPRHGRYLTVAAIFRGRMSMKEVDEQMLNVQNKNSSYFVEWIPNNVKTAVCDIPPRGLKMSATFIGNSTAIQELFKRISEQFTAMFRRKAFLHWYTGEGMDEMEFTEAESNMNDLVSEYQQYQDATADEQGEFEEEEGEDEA
UniProt O15078: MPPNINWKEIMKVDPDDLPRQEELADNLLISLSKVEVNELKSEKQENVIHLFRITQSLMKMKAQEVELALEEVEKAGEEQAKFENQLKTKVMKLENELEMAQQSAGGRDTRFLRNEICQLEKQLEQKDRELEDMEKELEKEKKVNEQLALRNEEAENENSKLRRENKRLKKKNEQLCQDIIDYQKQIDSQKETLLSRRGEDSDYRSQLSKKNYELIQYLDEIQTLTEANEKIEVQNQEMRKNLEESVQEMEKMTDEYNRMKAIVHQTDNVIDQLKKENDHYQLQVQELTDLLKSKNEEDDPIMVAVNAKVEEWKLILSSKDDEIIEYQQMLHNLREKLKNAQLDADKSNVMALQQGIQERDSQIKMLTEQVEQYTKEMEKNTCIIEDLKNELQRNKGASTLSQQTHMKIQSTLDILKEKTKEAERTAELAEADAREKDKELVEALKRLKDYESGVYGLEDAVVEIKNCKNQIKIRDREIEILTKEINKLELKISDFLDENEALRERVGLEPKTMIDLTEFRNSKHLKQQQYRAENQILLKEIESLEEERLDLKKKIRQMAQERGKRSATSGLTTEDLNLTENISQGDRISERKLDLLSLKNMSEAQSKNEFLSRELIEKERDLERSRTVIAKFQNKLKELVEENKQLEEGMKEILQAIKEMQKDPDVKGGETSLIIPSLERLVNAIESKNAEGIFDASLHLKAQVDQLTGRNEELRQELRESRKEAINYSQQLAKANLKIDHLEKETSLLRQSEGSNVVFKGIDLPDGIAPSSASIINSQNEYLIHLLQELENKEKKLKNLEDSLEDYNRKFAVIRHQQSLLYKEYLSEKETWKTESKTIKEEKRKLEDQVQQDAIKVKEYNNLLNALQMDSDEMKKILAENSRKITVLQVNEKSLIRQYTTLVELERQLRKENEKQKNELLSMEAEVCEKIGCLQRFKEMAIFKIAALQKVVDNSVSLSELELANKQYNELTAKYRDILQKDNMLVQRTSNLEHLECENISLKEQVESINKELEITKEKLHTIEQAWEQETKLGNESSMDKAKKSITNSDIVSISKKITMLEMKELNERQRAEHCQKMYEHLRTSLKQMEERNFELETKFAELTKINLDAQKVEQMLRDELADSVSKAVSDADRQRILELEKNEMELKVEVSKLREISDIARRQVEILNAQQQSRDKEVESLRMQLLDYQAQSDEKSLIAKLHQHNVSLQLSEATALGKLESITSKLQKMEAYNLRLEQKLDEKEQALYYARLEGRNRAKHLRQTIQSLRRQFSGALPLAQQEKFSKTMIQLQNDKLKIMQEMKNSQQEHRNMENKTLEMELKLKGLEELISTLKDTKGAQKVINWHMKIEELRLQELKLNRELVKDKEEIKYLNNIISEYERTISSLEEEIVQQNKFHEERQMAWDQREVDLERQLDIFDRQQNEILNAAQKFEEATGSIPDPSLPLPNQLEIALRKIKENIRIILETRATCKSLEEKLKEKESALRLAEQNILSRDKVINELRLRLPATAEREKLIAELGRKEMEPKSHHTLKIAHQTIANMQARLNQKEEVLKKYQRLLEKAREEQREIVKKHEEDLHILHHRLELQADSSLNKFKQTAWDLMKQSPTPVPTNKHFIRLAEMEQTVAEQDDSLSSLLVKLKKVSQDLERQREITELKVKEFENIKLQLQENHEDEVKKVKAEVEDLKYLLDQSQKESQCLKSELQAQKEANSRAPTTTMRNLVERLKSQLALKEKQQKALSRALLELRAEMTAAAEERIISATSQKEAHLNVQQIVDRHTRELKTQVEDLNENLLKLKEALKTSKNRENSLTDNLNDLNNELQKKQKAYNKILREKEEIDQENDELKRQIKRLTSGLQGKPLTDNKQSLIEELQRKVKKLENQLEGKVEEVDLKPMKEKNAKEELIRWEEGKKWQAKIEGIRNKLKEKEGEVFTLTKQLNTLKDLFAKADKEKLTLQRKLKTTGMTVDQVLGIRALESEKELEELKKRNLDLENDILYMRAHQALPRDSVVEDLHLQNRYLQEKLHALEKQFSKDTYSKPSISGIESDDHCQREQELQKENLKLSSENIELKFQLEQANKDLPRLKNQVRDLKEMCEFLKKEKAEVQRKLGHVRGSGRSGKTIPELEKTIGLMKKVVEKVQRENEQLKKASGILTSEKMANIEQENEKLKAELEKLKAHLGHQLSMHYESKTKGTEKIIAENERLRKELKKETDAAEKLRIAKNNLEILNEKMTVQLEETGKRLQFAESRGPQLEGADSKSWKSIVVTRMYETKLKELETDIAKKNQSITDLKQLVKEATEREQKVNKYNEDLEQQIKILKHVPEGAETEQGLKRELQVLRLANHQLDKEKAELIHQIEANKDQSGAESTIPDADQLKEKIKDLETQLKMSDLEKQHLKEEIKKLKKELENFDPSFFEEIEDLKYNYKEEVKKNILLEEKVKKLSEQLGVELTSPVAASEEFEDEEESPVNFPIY

target: pure, pre-polymerized, taxol-stabilized microtubules of bovine tubulin (Cytoskeleton) (bovine) (UniProt P81947+Q6B856); test: in vitro microtubule co-sedimentation of in vitro translated GFP fusions, western blot

binding, binds:
GFP fusion of CEP290 aa 1-1966 (from UniProt O15078 1-1966)
GFP fusion of CEP290 aa 580-2479 (from UniProt O15078 580-2479)
GFP fusion of full length human CEP290 (aa 1-2479) (from UniProt O15078 1-2479)
